Data on 37 targets can be found in the supplement of paper PMC11732987, “Enantioselective OTUD7B fragment discovery through chemoproteomics screening and high-throughput optimisation” (Communications Chemistry, 2025).

By UniProt entry, the sequences of proteins in these tests, tags left out. Where a name states a change or a piece, a line headed by the entry shows the natural chain unless it says otherwise. Residues count along the entry.
UniProt Q9P2D3: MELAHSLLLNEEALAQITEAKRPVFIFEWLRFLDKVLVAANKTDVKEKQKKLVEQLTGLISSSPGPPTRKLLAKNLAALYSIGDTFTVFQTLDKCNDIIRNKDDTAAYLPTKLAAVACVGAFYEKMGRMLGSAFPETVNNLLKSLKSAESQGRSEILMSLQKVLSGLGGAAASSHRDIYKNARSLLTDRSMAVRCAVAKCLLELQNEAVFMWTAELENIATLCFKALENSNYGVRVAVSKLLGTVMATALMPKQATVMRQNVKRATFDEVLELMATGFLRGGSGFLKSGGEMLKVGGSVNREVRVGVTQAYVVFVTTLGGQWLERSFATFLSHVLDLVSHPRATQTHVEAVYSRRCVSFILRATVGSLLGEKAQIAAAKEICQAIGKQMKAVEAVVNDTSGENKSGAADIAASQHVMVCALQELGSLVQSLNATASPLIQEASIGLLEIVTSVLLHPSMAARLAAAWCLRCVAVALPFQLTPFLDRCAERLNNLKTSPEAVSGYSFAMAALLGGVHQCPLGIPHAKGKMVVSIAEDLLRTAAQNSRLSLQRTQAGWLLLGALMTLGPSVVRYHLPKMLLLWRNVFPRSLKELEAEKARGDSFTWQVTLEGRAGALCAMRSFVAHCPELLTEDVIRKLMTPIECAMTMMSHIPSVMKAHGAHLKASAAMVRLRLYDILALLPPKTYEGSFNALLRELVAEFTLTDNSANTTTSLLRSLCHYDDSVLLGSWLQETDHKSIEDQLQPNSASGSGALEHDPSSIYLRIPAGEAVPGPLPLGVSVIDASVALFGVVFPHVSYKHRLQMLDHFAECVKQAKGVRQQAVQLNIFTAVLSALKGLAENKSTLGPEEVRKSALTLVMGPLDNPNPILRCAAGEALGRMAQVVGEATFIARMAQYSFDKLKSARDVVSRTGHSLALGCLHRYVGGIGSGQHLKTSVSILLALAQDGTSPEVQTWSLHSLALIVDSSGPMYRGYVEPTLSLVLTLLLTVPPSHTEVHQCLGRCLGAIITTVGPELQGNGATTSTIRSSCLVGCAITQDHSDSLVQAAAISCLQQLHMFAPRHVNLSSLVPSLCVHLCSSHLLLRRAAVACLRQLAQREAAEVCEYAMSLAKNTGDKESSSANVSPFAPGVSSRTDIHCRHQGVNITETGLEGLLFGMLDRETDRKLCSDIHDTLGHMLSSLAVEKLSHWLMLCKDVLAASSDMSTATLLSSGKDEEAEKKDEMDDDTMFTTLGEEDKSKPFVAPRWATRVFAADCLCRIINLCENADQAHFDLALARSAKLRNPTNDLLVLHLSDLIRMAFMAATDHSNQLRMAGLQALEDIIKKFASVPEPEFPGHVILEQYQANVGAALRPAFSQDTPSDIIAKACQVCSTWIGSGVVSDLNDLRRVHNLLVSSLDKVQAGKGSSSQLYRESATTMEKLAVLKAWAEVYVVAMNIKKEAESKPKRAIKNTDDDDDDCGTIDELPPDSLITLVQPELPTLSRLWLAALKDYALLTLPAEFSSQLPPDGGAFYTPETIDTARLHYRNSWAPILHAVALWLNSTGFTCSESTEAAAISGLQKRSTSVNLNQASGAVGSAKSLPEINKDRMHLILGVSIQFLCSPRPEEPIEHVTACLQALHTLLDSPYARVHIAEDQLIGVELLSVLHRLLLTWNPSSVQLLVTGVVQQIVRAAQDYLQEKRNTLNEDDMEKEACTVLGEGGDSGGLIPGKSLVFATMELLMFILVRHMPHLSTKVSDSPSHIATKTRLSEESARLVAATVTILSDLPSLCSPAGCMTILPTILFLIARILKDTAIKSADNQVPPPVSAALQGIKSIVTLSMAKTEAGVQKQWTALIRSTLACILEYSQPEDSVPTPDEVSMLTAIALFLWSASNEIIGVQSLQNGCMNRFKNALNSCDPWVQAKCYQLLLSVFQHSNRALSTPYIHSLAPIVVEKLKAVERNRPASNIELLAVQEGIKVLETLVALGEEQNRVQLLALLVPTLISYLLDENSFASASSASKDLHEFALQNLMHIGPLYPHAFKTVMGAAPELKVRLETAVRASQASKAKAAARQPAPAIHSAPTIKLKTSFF
UniProt P19367, 255-274: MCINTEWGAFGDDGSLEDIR
UniProt Q9ULT8: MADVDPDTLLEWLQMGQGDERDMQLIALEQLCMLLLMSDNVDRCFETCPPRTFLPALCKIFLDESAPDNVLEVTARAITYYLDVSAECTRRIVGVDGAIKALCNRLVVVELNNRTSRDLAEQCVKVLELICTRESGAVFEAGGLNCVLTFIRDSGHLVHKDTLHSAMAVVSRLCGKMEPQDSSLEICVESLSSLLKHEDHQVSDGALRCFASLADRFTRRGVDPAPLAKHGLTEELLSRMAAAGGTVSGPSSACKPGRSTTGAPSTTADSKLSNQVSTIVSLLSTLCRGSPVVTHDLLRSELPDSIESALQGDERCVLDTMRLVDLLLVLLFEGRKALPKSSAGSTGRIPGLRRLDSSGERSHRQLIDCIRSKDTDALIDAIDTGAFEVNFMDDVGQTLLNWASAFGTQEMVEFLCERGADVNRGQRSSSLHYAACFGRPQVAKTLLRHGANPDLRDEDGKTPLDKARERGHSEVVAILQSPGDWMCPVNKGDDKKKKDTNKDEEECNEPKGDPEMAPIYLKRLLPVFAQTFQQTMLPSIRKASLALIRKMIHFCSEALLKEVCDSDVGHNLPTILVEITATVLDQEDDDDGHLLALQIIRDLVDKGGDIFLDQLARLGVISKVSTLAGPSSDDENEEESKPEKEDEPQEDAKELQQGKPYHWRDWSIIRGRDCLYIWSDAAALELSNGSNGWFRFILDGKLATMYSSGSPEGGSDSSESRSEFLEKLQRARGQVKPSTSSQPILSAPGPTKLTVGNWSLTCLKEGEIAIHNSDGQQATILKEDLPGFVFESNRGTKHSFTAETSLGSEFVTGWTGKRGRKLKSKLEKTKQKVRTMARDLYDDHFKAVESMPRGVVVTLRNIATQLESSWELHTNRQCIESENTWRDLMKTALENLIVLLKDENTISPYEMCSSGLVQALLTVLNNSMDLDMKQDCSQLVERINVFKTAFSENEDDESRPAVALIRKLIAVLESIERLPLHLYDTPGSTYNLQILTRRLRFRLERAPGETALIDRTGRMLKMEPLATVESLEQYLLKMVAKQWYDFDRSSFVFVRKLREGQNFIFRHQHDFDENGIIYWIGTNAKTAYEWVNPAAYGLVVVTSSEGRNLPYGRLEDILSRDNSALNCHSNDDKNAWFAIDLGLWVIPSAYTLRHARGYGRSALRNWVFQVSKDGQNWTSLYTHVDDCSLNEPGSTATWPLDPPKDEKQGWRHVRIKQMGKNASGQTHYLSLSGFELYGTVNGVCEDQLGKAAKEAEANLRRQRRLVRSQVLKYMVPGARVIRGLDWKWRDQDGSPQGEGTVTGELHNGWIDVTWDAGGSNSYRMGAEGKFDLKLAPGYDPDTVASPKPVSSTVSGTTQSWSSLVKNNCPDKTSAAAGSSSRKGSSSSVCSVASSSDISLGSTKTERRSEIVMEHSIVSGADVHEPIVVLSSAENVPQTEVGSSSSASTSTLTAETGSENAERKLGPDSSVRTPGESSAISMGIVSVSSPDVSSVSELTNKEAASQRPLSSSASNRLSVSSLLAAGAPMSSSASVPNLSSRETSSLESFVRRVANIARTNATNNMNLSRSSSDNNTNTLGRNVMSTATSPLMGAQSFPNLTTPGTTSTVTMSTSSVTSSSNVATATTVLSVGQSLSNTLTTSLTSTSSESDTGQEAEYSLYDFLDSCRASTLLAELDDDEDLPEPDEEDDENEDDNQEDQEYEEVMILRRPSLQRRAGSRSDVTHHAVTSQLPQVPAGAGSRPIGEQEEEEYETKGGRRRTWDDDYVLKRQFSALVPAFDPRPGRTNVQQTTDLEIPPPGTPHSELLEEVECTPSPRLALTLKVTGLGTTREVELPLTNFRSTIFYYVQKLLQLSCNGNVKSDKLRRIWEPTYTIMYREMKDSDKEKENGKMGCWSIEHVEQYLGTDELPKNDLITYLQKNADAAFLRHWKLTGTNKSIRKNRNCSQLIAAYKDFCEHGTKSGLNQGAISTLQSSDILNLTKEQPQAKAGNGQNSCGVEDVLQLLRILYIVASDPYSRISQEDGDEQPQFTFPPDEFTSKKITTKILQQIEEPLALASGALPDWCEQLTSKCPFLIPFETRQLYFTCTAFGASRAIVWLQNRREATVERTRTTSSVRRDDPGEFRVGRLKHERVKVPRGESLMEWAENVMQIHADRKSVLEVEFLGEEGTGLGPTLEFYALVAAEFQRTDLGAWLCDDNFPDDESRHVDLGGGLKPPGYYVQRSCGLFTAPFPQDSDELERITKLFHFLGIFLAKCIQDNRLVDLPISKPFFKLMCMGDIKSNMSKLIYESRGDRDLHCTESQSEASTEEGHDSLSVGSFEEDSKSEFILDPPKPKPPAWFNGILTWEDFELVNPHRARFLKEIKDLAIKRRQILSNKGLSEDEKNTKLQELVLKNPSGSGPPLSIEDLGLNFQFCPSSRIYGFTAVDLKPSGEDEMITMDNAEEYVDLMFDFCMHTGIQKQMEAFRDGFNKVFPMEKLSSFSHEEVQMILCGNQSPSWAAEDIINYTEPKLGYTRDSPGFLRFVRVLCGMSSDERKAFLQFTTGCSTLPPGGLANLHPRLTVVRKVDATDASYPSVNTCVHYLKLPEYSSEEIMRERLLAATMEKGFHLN
UniProt Q96CS2: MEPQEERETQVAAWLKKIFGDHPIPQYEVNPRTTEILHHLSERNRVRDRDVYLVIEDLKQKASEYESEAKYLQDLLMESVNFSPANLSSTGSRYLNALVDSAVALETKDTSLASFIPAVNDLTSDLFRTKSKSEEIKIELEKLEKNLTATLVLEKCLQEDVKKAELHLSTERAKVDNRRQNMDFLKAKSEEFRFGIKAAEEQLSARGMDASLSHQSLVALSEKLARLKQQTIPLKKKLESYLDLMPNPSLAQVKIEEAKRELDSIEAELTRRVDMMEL
UniProt P21266: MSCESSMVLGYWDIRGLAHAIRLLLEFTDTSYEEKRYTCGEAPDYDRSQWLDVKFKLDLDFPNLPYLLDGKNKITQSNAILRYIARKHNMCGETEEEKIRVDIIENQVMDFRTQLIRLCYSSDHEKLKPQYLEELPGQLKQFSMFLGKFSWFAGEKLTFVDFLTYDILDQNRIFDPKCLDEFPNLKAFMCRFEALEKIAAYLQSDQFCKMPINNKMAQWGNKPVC
UniProt P13984: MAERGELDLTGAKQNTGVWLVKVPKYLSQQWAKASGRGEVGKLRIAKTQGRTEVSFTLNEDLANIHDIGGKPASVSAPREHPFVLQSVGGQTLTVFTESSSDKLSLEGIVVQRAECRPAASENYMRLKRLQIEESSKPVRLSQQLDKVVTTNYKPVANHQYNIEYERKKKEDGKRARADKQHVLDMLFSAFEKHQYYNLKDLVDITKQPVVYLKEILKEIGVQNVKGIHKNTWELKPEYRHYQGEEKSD
UniProt O00291: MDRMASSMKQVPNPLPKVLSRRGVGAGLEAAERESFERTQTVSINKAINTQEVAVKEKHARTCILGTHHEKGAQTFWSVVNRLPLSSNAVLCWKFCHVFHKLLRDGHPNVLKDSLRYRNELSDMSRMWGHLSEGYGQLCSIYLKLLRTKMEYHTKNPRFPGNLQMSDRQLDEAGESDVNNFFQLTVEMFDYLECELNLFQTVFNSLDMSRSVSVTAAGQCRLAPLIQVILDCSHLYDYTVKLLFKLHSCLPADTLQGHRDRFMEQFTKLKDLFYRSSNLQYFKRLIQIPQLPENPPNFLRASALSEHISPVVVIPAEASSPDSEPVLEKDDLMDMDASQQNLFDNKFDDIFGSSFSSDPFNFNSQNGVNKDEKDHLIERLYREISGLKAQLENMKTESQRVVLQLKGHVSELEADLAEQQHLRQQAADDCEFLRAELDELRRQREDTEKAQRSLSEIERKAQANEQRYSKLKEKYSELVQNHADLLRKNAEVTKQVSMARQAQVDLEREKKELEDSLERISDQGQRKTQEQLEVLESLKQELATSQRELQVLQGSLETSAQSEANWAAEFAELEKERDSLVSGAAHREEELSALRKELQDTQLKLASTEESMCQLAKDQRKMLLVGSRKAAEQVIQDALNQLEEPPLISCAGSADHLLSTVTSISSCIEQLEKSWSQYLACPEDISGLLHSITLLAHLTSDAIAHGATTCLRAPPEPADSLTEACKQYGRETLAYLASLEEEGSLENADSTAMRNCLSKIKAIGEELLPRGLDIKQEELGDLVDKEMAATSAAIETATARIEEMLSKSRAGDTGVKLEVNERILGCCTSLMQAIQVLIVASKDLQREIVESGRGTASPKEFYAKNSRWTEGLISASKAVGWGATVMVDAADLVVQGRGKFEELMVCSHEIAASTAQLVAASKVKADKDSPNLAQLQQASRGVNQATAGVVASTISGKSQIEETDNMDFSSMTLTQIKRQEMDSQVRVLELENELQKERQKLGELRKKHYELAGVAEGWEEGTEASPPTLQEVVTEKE

The other results are listed elsewhere or left out. The data scatter; read single values as rough.

Compound in one assay: ClCC(=O)N[C@@H]1CCCc2ccccc12
Description: log2 mean competition ratio of IA-DTB cysteine labelling (DMSO/compound) (log2 ratio); higher = stronger cysteine engagement by compound. To be noted: 50 µM; treatment time: 4 h; cell line lysate: HEK293T. Here is the method:
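IA-DTB competitive cysteine chemoproteomics in HEK293T RIPA lysate. Lysates were treated with compound 29 or 30 at 50 or 200 µM for 4 h, then IA-DTB (500 µM, 1 h), trypsin-digested, NeutrAvidin-enriched and analysed by diaPASEF. Competition ratio = intensity DMSO / intensity compound (n=4 treated, n=64 DMSO); binding: mean log2 CR ≥ 1 and p ≤ 0.05 plus QC filters. Target is the cysteine site.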
As for GTF3C1 C179 (UniProt Q12789), the “log2 mean competition ratio” value is -0.182. As to HMMR C712 (UniProt O75330), the “log2 mean competition ratio” value was 0.13.

Consider HEATR5B C870 (UniProt Q9P2D3), for which the “log2 mean competition ratio” value is 0.201. HK1 C256 (UniProt P19367): the “log2 mean competition ratio” value is -0.0978. Same read-out and setting: with HCFC1 C1872 (UniProt P51610) the figure was 0.311. As to HOXB13 C211, the “log2 mean competition ratio” value is 0.174. The same measure, in the same setting: with HECTD1 C1995 (UniProt Q9ULT8) the figure was 0.145.

Still in this assay, the particulars now being: 200 µM; treatment time: 4 h; cell line lysate: HEK293T.
For the target HK2 C813 (UniProt P52789), the “log2 mean competition ratio” value is 0.416. Regarding GTF3C4 C174 (UniProt Q9UKN8), the “log2 mean competition ratio” value is -0.112. Same read-out and setting: then HIP1R C650 (UniProt O75146), with 0.0308.

For HDDC3 C133 (UniProt Q8N4P3), the “log2 mean competition ratio” value is -0.148. For the target HELLS C836 (UniProt Q9NRZ9), the “log2 mean competition ratio” value is -0.332. On the same count and under the same terms, then HNRNPD C126, with -0.119; and HNRNPUL2 C308 (UniProt Q1KMD3), with -0.147. Same read-out and setting: then HDAC4 C194 (UniProt P56524), with -0.14; and GTF2E1 C42 (UniProt P29083), with -0.0491.

Turning to HECTD4 C1084, the “log2 mean competition ratio” value came out at 0.118. Turning to HECTD1 C369 (UniProt Q9ULT8), the “log2 mean competition ratio” value stood at 0.287. Same read-out and setting: with HJURP C327 (UniProt Q8NCD3) the figure was -0.476; with HERC1 C1941 (UniProt Q15751), -0.048. As for HABP4 C236 (UniProt Q5JVS0), the “log2 mean competition ratio” value was -0.0817. Turning to HAUS5 C446 (UniProt O94927), the “log2 mean competition ratio” value is -0.11. With HNRNPA2B1 C50 (UniProt P22626), the “log2 mean competition ratio” value is 0.0958. On to HEATR5B C625 (UniProt Q9P2D3), for which the “log2 mean competition ratio” value worked out at 0.0599.

Consider HAUS1 C156 (UniProt Q96CS2), for which the “log2 mean competition ratio” value was -0.136. As for H3-7 C111, the “log2 mean competition ratio” value is -0.307. Consider HK1 C886 (UniProt P19367), for which the “log2 mean competition ratio” value is -0.191. On to HEXB C360 (UniProt P07686), for which the “log2 mean competition ratio” value was 0.00181. Consider GUSB C644 (UniProt P08236), for which the “log2 mean competition ratio” value worked out at 0.00559. For HECTD1 C123 (UniProt Q9ULT8), the “log2 mean competition ratio” value was -0.111.

Consider HGS C75 (UniProt O14964), for which the “log2 mean competition ratio” value was -0.187.

As to GSTM2 C115 (UniProt P28161), the “log2 mean competition ratio” value turned out to be 0.0999.

Turning to HOOK1 C432 (UniProt Q9UJC3), the “log2 mean competition ratio” value was -0.297. GSTM3 C119 (UniProt P21266): the “log2 mean competition ratio” value was -0.133. Same read-out and setting: then GTF2F2 C116 (UniProt P13984), with 0.196; and HK1 C834 (UniProt P19367), with 0.0358; and HIP1 C63 (UniProt O00291), with 0.16. On the same count and under the same terms, then HMMR C712 (UniProt O75330), with 0.0789; and HEATR5B C870 (UniProt Q9P2D3), with 0.898; and HK1 C256 (UniProt P19367), with 0.602.

For the target HCFC1 C1872 (UniProt P51610), the “log2 mean competition ratio” value was found to be 0.128. On the same count and under the same terms, then HOXB13 C211, with 0.52. Regarding HECTD1 C1995 (UniProt Q9ULT8), the “log2 mean competition ratio” value worked out at 0.219.
